Measured values from the supplement of paper PMC11438910.
This is one part of the list. Most of these values are background signal.

Tests used:
Test in all cases: fluorescence intensity of antibody binding to polysaccharide-coupled beads; higher = stronger binding
[1] = molecular target: pneumococcal polysaccharide Pn10A
[2] = molecular target: pneumococcal polysaccharide Pn10B
[3] = molecular target: pneumococcal polysaccharide Pn10C
[4] = molecular target: pneumococcal polysaccharide Pn10F
[5] = molecular target: pneumococcal polysaccharide Pn11A
[6] = molecular target: pneumococcal polysaccharide Pn11B
[7] = molecular target: pneumococcal polysaccharide Pn11C
[8] = molecular target: pneumococcal polysaccharide Pn11D
[9] = molecular target: pneumococcal polysaccharide Pn11F
[10] = molecular target: pneumococcal polysaccharide Pn12A
[11] = molecular target: pneumococcal polysaccharide Pn12B
[12] = molecular target: pneumococcal polysaccharide Pn12F
[13] = antibody concentration 2337.65 ng/mL
[14] = antibody concentration 12500 ng/mL
[15] = antibody concentration 0.1 ng/mL
[16] = antibody concentration 0.534724 ng/mL
[17] = antibody concentration 2.8593 ng/mL
[18] = antibody concentration 15.2894 ng/mL
[19] = antibody concentration 81.7561 ng/mL
[20] = antibody concentration 437.17 ng/mL

B1: 4-80.2 (protein)
chain 1: QVQLQESGPGLVKPSETLSLTCAVSGDSFSSYWWSWIRQPPGKGLEWIGEINGNVGSTNYNPSLKSRVTISKDASKNQFSLKLSSVTAADTAVYYCARYKEYWGQGVLVTVSS
chain 2: DVVMTQSPLSLPITPGQPASISCRSSQSLVHSNGNTYLSWYQQKPGQPPRRLIYEVSNRDSGVPDRFSGSGAGTDFTLKISRVEAEDVGVYYCGQGTHLPYSFGQGTKVEIK
B1 was tested, and the fluorescence intensity [1, 13] was 28 MFI, the fluorescence intensity [1, 14] was 33 MFI and the fluorescence intensity [2, 15] was 24.2 MFI. For the same binder, the fluorescence intensity [2, 16] was 24.5 MFI, the fluorescence intensity [2, 17] was 24 MFI and the fluorescence intensity [2, 18] was 22.5 MFI. The fluorescence intensity [2, 19] was 24.2 MFI, the fluorescence intensity [2, 20] was 24 MFI and the fluorescence intensity [2, 13] was 25.5 MFI. It also gave a fluorescence intensity [2, 14] of 31.5 MFI, a fluorescence intensity [3, 15] of 16.2 MFI and a fluorescence intensity [3, 16] of 17.2 MFI. The fluorescence intensity [3, 17] was 17.5 MFI, the fluorescence intensity [3, 18] was 17.2 MFI and the fluorescence intensity [3, 19] was 17.2 MFI. For the same binder, the fluorescence intensity [3, 20] was 18.2 MFI, the fluorescence intensity [3, 13] was 18.5 MFI and the fluorescence intensity [3, 14] was 20.2 MFI. The fluorescence intensity [4, 15] was 19.5 MFI, the fluorescence intensity [4, 16] was 21.5 MFI and the fluorescence intensity [4, 17] was 18.5 MFI. It also gave a fluorescence intensity [4, 18] of 20 MFI, a fluorescence intensity [4, 19] of 19.5 MFI and a fluorescence intensity [4, 20] of 17.8 MFI. The fluorescence intensity [4, 13] was 21.5 MFI, the fluorescence intensity [4, 14] was 23.2 MFI and the fluorescence intensity [5, 15] was 29.5 MFI. It also gave a fluorescence intensity [5, 16] of 29.5 MFI, a fluorescence intensity [5, 17] of 31 MFI and a fluorescence intensity [5, 18] of 27.5 MFI. For the same binder, the fluorescence intensity [5, 19] was 27.8 MFI, the fluorescence intensity [5, 20] was 31 MFI and the fluorescence intensity [5, 13] was 30.5 MFI. For the same binder, the fluorescence intensity [5, 14] was 34 MFI, the fluorescence intensity [6, 15] was 27.5 MFI and the fluorescence intensity [6, 16] was 27 MFI. For the same binder, the fluorescence intensity [6, 17] was 25.8 MFI, the fluorescence intensity [6, 18] was 25.8 MFI and the fluorescence intensity [6, 19] was 24 MFI. The fluorescence intensity [6, 20] was 31 MFI, the fluorescence intensity [6, 13] was 31.5 MFI and the fluorescence intensity [6, 14] was 36.5 MFI. The fluorescence intensity [7, 15] was 24 MFI, the fluorescence intensity [7, 16] was 22.5 MFI and the fluorescence intensity [7, 17] was 21.5 MFI. The fluorescence intensity [7, 18] was 22 MFI, the fluorescence intensity [7, 19] was 22 MFI and the fluorescence intensity [7, 20] was 22 MFI. The fluorescence intensity [7, 13] was 26.8 MFI, the fluorescence intensity [7, 14] was 63.5 MFI and the fluorescence intensity [8, 15] was 23.8 MFI. It also gave a fluorescence intensity [8, 16] of 24.5 MFI, a fluorescence intensity [8, 17] of 23.5 MFI and a fluorescence intensity [8, 18] of 22.8 MFI. It also gave a fluorescence intensity [8, 19] of 25 MFI, a fluorescence intensity [8, 20] of 23.2 MFI and a fluorescence intensity [8, 13] of 25.5 MFI. For the same binder, the fluorescence intensity [8, 14] was 42.5 MFI, the fluorescence intensity [9, 15] was 16.5 MFI and the fluorescence intensity [9, 16] was 14.2 MFI. The fluorescence intensity [9, 17] was 14.5 MFI, the fluorescence intensity [9, 18] was 15 MFI and the fluorescence intensity [9, 19] was 16 MFI. It also gave a fluorescence intensity [9, 20] of 15 MFI, a fluorescence intensity [9, 13] of 15.5 MFI and a fluorescence intensity [9, 14] of 17.8 MFI. For the same binder, the fluorescence intensity [10, 15] was 16.2 MFI, the fluorescence intensity [10, 16] was 16 MFI and the fluorescence intensity [10, 17] was 15.2 MFI. The fluorescence intensity [10, 18] was 15 MFI, the fluorescence intensity [10, 19] was 14.5 MFI and the fluorescence intensity [10, 20] was 14.8 MFI. It also gave a fluorescence intensity [10, 13] of 17.8 MFI, a fluorescence intensity [10, 14] of 26 MFI and a fluorescence intensity [11, 15] of 16.5 MFI. For the same binder, the fluorescence intensity [11, 16] was 16.5 MFI, the fluorescence intensity [11, 17] was 16.5 MFI and the fluorescence intensity [11, 18] was 15 MFI. The fluorescence intensity [11, 19] was 16.5 MFI, the fluorescence intensity [11, 20] was 17.5 MFI and the fluorescence intensity [11, 13] was 17.2 MFI. For the same binder, the fluorescence intensity [11, 14] was 27.5 MFI, the fluorescence intensity [12, 15] was 20.2 MFI and the fluorescence intensity [12, 16] was 21 MFI. It also gave a fluorescence intensity [12, 17] of 18.8 MFI, a fluorescence intensity [12, 18] of 17.5 MFI and a fluorescence intensity [12, 19] of 19.5 MFI. For the same binder, the fluorescence intensity [12, 20] was 20.5 MFI, the fluorescence intensity [12, 13] was 18.8 MFI and the fluorescence intensity [12, 14] was 27 MFI.
